Laboratory results taken from publication PMC2391170.
These are yes or no findings as the source states them, for the method shown. Some binding calls cover weakened binding; strength is not graded here.

How the values were obtained:
Assay in all cases: two-hybrid; AD (pGAD-C(1)) and BD (pGBD-C(1)) fusions in yeast PJ69-4; dual transformants tested on media lacking leucine, tryptophan and adenine; positive if all tested colonies (4 to 10) grew; both combinations of clones tested whenever possible
AtCPSF30 (Arabidopsis) = molecular target: T1, AtCPSF30 (Arabidopsis) (UniProt A9LNK9)
T1 sequence: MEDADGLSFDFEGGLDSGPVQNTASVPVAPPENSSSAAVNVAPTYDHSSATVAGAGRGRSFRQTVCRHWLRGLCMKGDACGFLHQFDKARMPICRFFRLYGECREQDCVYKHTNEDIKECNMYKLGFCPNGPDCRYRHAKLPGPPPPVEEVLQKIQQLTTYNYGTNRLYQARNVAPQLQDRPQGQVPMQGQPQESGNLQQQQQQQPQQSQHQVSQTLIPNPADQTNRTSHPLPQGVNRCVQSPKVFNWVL

AtCPSF73-I (Arabidopsis) = molecular target: T2, AtCPSF73-I (Arabidopsis) (UniProt Q9C952)
T2 sequence: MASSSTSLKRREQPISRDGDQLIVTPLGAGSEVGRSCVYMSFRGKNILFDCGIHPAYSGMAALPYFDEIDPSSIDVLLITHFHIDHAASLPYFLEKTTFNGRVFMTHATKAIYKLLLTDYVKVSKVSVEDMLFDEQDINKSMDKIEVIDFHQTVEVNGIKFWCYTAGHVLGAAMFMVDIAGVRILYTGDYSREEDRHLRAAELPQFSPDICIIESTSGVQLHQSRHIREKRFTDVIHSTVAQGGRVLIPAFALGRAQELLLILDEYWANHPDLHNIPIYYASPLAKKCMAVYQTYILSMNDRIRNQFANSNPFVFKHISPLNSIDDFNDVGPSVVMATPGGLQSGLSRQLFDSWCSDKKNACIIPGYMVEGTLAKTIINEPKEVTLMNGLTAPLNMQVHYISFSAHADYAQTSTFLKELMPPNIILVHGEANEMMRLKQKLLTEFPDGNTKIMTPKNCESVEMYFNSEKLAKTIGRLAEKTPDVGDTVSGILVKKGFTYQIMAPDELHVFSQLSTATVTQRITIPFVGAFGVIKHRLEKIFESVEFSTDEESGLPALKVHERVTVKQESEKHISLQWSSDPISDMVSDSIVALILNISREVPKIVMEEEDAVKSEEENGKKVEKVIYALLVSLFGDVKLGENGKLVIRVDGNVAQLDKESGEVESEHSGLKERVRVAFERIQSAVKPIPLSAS

[1] = molecular target: T3, AtCPSF73-II (Arabidopsis) (UniProt Q8GUU3)
T3 sequence: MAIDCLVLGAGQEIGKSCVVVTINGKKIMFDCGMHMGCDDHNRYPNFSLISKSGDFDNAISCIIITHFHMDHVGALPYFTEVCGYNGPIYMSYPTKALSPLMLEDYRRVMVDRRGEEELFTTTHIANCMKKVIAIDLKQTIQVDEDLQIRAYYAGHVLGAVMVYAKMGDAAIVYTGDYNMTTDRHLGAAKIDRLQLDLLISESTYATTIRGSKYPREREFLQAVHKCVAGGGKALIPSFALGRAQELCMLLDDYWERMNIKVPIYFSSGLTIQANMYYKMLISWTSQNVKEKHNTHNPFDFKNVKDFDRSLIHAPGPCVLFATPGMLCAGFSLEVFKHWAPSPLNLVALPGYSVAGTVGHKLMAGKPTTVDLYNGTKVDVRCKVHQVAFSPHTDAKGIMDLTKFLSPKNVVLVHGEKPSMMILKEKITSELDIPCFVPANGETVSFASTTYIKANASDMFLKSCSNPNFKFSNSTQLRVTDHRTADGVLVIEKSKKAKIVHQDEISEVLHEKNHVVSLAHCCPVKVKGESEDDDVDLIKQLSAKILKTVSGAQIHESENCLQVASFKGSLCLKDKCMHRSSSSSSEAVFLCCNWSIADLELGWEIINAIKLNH

FY (Arabidopsis) = molecular target: T4, FY (Arabidopsis) (UniProt Q6NLV4)
T4 sequence: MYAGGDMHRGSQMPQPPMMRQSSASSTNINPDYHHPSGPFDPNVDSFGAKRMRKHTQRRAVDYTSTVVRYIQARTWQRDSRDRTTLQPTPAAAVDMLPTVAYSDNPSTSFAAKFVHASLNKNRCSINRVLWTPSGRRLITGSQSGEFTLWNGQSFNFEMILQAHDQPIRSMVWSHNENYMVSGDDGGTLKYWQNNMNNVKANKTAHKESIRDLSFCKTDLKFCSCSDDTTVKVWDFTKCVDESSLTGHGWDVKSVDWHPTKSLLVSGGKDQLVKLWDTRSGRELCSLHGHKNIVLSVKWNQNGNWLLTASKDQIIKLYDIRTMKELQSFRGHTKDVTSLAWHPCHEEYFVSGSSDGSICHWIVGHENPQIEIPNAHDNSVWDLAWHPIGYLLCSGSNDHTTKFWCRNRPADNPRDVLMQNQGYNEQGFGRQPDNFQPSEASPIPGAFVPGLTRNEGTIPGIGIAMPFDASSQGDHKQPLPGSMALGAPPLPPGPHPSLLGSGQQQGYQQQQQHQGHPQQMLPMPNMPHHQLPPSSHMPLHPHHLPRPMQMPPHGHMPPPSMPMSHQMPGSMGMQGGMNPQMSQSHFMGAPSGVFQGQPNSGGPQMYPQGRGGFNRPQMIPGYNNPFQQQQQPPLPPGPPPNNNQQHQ

Measured: binding

B1: AtCPSF100 (protein, UniProt Q9LKF9 1-739)
chain: MGTSVQVTPLCGVYNENPLSYLVSIDGFNFLIDCGWNDLFDTSLLEPLSRVASTIDAVLLSHPDTLHIGALPYAMKQLGLSAPVYATEPVHRLGLLTMYDQFLSRKQVSDFDLFTLDDIDSAFQNVIRLTYSQNYHLSGKGEGIVIAPHVAGHMLGGSIWRITKDGEDVIYAVDYNHRKERHLNGTVLQSFVRPAVLITDAYHALYTNQTARQQRDKEFLDTISKHLEVGGNVLLPVDTAGRVLELLLILEQHWSQRGFSFPIYFLTYVSSSTIDYVKSFLEWMSDSISKSFETSRDNAFLLRHVTLLINKTDLDNAPPGPKVVLASMASLEAGFAREIFVEWANDPRNLVLFTETGQFGTLARMLQSAPPPKFVKVTMSKRVPLAGEELIAYEEEQNRLKREEALRASLVKEEETKASHGSDDNSSEPMIIDTKTTHDVIGSHGPAYKDILIDGFVPPSSSVAPMFPYYDNTSEWDDFGEIINPDDYVIKDEDMDRGAMHNGGDVDGRLDEATASLMLDTRPSKVMSNELIVTVSCSLVKMDYEGRSDGRSIKSMIAHVSPLKLVLVHAIAEATEHLKQHCLNNICPHVYAPQIEETVDVTSDLCAYKVQLSEKLMSNVIFKKLGDSEVAWVDSEVGKTERDMRSLLPMPGAASPHKPVLVGDLKIADFKQFLSSKGVQVEFAGGGALRCGEYVTLRKVGPTGQKGGASGPQQILIEGPLCEDYYKIRDYLYSQFYLL
binds: AtCPSF30 (Arabidopsis) | AtCPSF73-I (Arabidopsis) | [1] | FY (Arabidopsis)
